Source: PMC12455970

Sequences of proteins named here, by UniProt entry; tags and fusion partners are left off.
UniProt P10192: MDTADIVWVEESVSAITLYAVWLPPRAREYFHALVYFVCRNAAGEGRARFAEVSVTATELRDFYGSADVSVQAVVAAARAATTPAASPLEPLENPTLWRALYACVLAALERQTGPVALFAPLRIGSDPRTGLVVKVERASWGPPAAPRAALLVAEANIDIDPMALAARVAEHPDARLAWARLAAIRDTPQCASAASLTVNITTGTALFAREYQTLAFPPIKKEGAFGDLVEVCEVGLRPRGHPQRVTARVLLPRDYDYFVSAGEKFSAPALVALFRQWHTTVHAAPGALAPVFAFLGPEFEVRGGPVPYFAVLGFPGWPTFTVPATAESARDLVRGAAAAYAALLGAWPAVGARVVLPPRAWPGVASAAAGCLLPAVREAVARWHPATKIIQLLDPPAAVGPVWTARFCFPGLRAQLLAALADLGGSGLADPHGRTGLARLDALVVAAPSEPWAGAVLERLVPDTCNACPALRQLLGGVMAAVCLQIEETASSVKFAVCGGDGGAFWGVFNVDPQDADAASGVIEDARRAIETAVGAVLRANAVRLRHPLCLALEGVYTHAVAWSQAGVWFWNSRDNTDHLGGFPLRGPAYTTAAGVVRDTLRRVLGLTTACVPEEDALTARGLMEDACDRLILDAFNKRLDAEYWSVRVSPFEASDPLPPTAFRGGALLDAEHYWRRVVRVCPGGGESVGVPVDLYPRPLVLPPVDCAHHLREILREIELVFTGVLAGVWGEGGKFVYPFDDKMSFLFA
UniProt O60934: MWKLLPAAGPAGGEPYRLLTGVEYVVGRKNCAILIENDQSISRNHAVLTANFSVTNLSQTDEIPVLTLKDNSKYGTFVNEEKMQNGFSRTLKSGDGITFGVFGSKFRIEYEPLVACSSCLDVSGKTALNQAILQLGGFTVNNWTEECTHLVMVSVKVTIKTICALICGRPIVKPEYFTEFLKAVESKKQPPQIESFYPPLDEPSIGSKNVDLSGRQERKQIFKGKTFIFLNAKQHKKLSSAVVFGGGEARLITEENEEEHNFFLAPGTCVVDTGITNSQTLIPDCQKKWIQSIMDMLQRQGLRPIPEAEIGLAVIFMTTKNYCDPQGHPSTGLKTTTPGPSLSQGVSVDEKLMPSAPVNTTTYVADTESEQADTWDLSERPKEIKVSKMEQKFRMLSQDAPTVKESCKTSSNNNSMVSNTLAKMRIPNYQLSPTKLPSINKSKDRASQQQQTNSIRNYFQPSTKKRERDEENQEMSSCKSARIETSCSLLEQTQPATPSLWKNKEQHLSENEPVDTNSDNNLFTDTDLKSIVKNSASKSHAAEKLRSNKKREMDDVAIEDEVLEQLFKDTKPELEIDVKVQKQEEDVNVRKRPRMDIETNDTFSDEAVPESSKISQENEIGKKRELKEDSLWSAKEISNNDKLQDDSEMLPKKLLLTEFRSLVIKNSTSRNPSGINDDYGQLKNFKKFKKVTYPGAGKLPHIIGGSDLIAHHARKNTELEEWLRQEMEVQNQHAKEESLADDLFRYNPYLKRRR
UniProt Q92878: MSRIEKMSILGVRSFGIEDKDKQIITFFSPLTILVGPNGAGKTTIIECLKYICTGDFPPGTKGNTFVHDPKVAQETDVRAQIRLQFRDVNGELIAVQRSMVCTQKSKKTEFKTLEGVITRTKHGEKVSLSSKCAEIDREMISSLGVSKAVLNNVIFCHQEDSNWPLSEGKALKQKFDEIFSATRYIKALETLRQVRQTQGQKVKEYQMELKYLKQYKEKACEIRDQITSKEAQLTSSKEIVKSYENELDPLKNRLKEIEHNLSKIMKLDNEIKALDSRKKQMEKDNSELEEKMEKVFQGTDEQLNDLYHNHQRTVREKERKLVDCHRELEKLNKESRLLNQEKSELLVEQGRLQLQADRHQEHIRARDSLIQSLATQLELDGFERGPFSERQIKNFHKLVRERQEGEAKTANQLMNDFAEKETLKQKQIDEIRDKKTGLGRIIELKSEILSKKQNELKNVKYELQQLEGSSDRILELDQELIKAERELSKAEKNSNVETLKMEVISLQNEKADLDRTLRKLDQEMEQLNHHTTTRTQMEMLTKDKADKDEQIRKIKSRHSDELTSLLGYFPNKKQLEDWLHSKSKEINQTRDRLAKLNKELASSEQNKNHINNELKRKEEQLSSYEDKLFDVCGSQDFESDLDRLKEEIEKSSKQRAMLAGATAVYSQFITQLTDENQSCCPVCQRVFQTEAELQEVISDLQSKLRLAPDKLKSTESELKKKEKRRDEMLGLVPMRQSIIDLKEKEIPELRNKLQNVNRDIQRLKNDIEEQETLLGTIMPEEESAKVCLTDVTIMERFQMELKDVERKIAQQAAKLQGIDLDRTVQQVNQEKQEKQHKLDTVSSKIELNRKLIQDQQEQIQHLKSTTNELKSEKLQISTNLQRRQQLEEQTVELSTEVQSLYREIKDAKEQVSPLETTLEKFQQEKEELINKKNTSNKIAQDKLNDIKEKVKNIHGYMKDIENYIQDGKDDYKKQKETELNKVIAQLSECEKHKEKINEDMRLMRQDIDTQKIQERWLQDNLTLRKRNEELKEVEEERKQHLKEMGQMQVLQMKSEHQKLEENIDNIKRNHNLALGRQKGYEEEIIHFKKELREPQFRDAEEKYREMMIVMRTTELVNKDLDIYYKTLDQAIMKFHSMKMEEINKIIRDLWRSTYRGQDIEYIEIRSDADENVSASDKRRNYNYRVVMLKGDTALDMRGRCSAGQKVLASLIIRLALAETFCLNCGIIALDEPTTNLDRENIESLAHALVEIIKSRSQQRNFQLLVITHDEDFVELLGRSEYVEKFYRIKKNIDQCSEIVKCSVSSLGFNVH

B1: Ubiquitin-specific protease 15 (USP15), endogenous in 293T (enzyme, UniProt Q9Y4E8 1-981)
chain: MAEGGAADLDTQRSDIATLLKTSLRKGDTWYLVDSRWFKQWKKYVGFDSWDKYQMGDQNVYPGPIDNSGLLKDGDAQSLKEHLIDELDYILLPTEGWNKLVSWYTLMEGQEPIARKVVEQGMFVKHCKVEVYLTELKLCENGNMNNVVTRRFSKADTIDTIEKEIRKIFSIPDEKETRLWNKYMSNTFEPLNKPDSTIQDAGLYQGQVLVIEQKNEDGTWPRGPSTPKSPGASNFSTLPKISPSSLSNNYNNMNNRNVKNSNYCLPSYTAYKNYDYSEPGRNNEQPGLCGLSNLGNTCFMNSAIQCLSNTPPLTEYFLNDKYQEELNFDNPLGMRGEIAKSYAELIKQMWSGKFSYVTPRAFKTQVGRFAPQFSGYQQQDCQELLAFLLDGLHEDLNRIRKKPYIQLKDADGRPDKVVAEEAWENHLKRNDSIIVDIFHGLFKSTLVCPECAKISVTFDPFCYLTLPLPMKKERTLEVYLVRMDPLTKPMQYKVVVPKIGNILDLCTALSALSGIPADKMIVTDIYNHRFHRIFAMDENLSSIMERDDIYVFEININRTEDTEHVIIPVCLREKFRHSSYTHHTGSSLFGQPFLMAVPRNNTEDKLYNLLLLRMCRYVKISTETEETEGSLHCCKDQNINGNGPNGIHEEGSPSEMETDEPDDESSQDQELPSENENSQSEDSVGGDNDSENGLCTEDTCKGQLTGHKKRLFTFQFNNLGNTDINYIKDDTRHIRFDDRQLRLDERSFLALDWDPDLKKRYFDENAAEDFEKHESVEYKPPKKPFVKLKDCIELFTTKEKLGAEDPWYCPNCKEHQQATKKLDLWSLPPVLVVHLKRFSYSRYMRDKLDTLVDFPINDLDMSEFLINPNAGPCRYNLIAVSNHYGGMGGGHYTAFAKNKDDGKWYYFDDSSVSTASEDQIVSKAAYVLFYQRQDTFSGTGFFPLDRETKGASAATGIPLESDEDSNDNDNDIENENCMHTN

Molecular target: Flag-UL8 (HSV-1) (UniProt P10192)
Test: affinity purification with mass spectrometry

Q: For Nbs1 (from UniProt O60934 1-754), which binding is on record?
A: The binding was “no binding”.

Q: Rad50 (from UniProt Q92878 1-1312) was tested. Which binding did it give?
A: The binding was “no binding”.

Q: Which binding does the source give for B1 here?
A: The binding was “no binding”.

No constants are given. Whether binding was seen depends on the method and setting. In cells and extracts the contact can be indirect. A yes stands for co-enrichment or nearness to the bait. Other partners may have been found. No binding means not detected with the bait.
